According to PMC3581772:
Results are given in words; binding and its absence hold for the method and conditions named. Some results given as binding are weak or reduced against the parent protein; the word gives no strength.

Target: T1, reduced and carboxymethylated α-lactalbumin, P00711
T1 chain: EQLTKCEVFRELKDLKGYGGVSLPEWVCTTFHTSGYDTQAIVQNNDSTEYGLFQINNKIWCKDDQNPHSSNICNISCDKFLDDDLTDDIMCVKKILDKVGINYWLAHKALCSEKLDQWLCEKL
Experiment: thioflavin T fluorescence of fibril formation; Supplementary Fig. 3, conditions not shown; the abstract's summary names fluorescence technology
Settings: remark: other sources report otherwise

B1: reduced and carboxymethylated α-lactalbumin, P00711 20-142 (protein)
chain: EQLTKCEVFRELKDLKGYGGVSLPEWVCTTFHTSGYDTQAIVQNNDSTEYGLFQINNKIWCKDDQNPHSSNICNISCDKFLDDDLTDDIMCVKKILDKVGINYWLAHKALCSEKLDQWLCEKL
modifications: here or on the partner: reduced and carboxymethylated; reduced and carboxymethylated
binding: binds
